Results on 35 compounds are retold here after PubChem BioAssay AID1487 (National Center for Advancing Translational Sciences (NCATS), 2009).

The experiment in a line: qHTS Assay for Modulators of Lamin A Splicing. As to conditions: HeLa LMNA splicing GFP/RFP minigene ratio, 48 h. The procedure, abridged: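 S3 HeLa cells stably expressing lamin A-EGFP splicing minigene plus DsRed2, 600 cells/well, 48 h compound exposure at 37C. Laser-scanning cytometry; analysed as GFP (500-530 nm)/RFP (575-640 nm) total intensity ratio; 0.5% DMSO vehicle.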
(In qHTS, concentration-response curves come from the screen itself.)

The mark [1] stands for this setting: measured here: GFP splicing reporter channel.
Where [2] appears, read: measured here: RFP viability control channel.

Where “and” joins values, the source holds several entries; their conditions need not be identical. Equal entries are not always repeated. The list shows a part of the results. These are further read-outs of the screen, such as a control signal, another cell line or another target. No call is given for them. Most of these compounds were active or inconclusive in the main read-out, so they are no random draw. The note in brackets gives the kind of curve behind each potency; many fits are weak.

Usually AC50 stands for the concentration at which the activity in the assay is half-maximal. As to `COc1cccc(OC(C)c2ccnc3nc(/N=C/N(C)C)nn23)c1` (centres undefined), the AC50 under setting [1] was 25.1 µM [rising, single point].
Same read-out and setting: as for `CCOC(=O)C1=C(CNCCc2ccc(Cl)cc2)NC(=O)NC1c1cccc([N+](=O)[O-])c1` (centres undefined), the figure is 0.141 µM [rising, full curve, poor fit].
With `O=C(CSc1ncccn1)N/N=C/c1ccccc1[N+](=O)[O-]`, the AC50 under setting [2] is 0.00398 µM [falling, full curve, poor fit].
As to `CCCCN(C(=O)CSc1cc(C)c2ccc(OC)cc2n1)c1c(N)n(Cc2ccccc2)c(=O)[nH]c1=O`, the AC50 under setting [2] was 35.5 µM [rising, single point].
The same measure, in the same setting: to `COc1ccccc1-c1nnc(SCC(=O)NC2CCCCC2)o1` belongs 0.282 µM [rising, full curve].
Consider `Cc1cccc(-c2cc(NC(=O)C(C)(C)C)n(-c3ccccc3)n2)c1`, for which the AC50 under setting [2] was 25.1 µM [rising, single point].
On the same count and under the same terms, to `O=C(Nc1nc2ccccc2n1CCOc1ccc(Cl)cc1)c1ccco1` belongs 12.6 µM [rising, single point].
For the compound `CCCCOc1ccc(C(=O)CCN2CCCCC2)cc1`, the AC50 was 282 nM [falling, full curve, poor fit] and 20 µM [rising, partial curve, poor fit] under setting [1]; 0.631 µM [falling, full curve] under setting [2].
For `Cc1nc2nc(SCc3ccc(F)cc3Cl)nn2c(C)c1Cc1ccccc1`, the half-maximal activity concentration (AC50) runs as follows: under setting [1], 35.5 µM [falling, single point]; under setting [2], 35.5 µM [falling, partial curve].
With `O=C(Cn1cnc2ccccc2c1=O)N1CCOCC1`, the AC50 under setting [1] was 0.447 µM [rising, full curve, poor fit].
Turning to `CCOc1cc(CNc2ncnc3nc[nH]c23)ccc1OC`, the AC50 is 14.1 µM [rising, single point] under setting [1] and 17.8 µM [rising, partial curve] under setting [2].
Consider `CCC(=O)OCCNc1cc(Sc2nccn2C)c2nonc2c1[N+](=O)[O-]`, for which the AC50 under setting [2] is 7.08 µM [falling, single point].
Turning to `Cc1nn(Cc2ccc(F)cc2)c2sc(C(=O)Nc3nccs3)cc12`, under setting [1], the AC50 was 1 µM [rising, full curve, poor fit].
Turning to `Cn1c(N2CCN(C(=O)Nc3ccc(F)cc3)CC2)nc2ccccc21`, the AC50 under setting [2] is 14.1 µM [rising, single point].
Same read-out and setting: as for `COc1ccc(CCNC(=O)CSc2nnc(-c3ccccc3)c3ccccc23)cc1OC`, the figure is 1.41 µM [rising, full curve].
Regarding `Cc1sc(NC(=O)CSc2nnc(-c3ccccc3)o2)c(C#N)c1C`, the AC50 by setting is: under setting [1], 10 µM [rising, partial curve, poor fit]; under setting [2], 10 µM [rising, partial curve].
With `CCOc1ccc(S(=O)(=O)N(CC(=O)N2CCc3ccccc32)Cc2ccco2)cc1`, under setting [2], the AC50 was 15.8 µM [rising, single point].
`COc1cc(OC)c(NS(=O)(=O)c2ccc3c(c2)NC(=O)CCS3)cc1Cl`: the concentration at half-maximal activity (AC50) is 0.0316 µM [falling, full curve, poor fit] under setting [1] and 0.1 µM [falling, full curve] under setting [2].
On to `O=[N+]([O-])c1ccc(OCC(O)CN2CCN(c3ccccc3F)CC2)cc1` (centres undefined), for which the AC50 is 35.5 µM [falling, single point] under setting [1] and 35.5 µM [falling, single point] under setting [2].
For the compound `Cc1cc(C)cc(Nc2sc(C(=O)c3ccccc3)c(N)c2S(=O)(=O)c2ccccc2)c1`, the AC50 reads like this: under setting [1], 31.6 µM [rising, single point]; under setting [2], 11.2 µM [rising, single point].
Take `CCn1nc(C)c(/C=N/NC(=O)Cc2ccc(Cl)cc2)c1C`: the concentration at half-maximal activity (AC50) runs as follows: under setting [1], 7.08 µM [rising, full curve, poor fit]; under setting [2], 15.8 µM [rising, partial curve].
As for `CCOC(=O)C(C(=O)OCC)C(C(=O)OCC)N1CCOCC1` (centres undefined), the AC50 under setting [2] was 0.0178 µM [falling, full curve, poor fit].
As for `Cn1c(=O)c2c(ncn2CC(COCc2ccc(Cl)cc2)OCc2ccc(Cl)cc2)n(C)c1=O` (centres undefined), the AC50 under setting [2] was 35.5 µM [rising, single point].
Regarding `CCCOc1cccc(-c2cc(-c3n[nH]c(=S)n3CC)c3ccccc3n2)c1`, the AC50 under setting [1] is 25.1 µM [falling, single point] and the half-maximal activity concentration (AC50) under setting [2] was 35.5 µM [falling, single point].
For the compound `N/C(Cc1ccc(Cl)c(Cl)c1)=N\OC(=O)c1cccs1`, the AC50 is 22.4 µM [falling, single point] under setting [1] and 22.4 µM [falling, single point] under setting [2].
Regarding `CCc1ccccc1NCC(=O)Nc1ccc(Cl)c(C(F)(F)F)c1`, under setting [2], the AC50 is 35.5 µM [rising, single point].
The same measure, in the same setting: to `CN(C)c1ccc(/C=N/NC(=O)c2sccc2-n2cccc2)cc1` belongs 31.6 µM [falling, partial curve].
Turning to `Cc1cc(C)cc(OCC(=O)NCC2(N(C)C)CCCCC2)c1`, the AC50 was 0.447 µM [falling, full curve, poor fit] under setting [1] and 0.0316 µM [falling, full curve, poor fit] under setting [2].
Take `COCC(C)n1c(SCC(=O)NNC(=O)c2ccccc2)nc2ccccc2c1=O` (centres undefined): the AC50 under setting [2] was 0.0891 µM [falling, full curve, poor fit].
Still for that read-out and setting: to `O=C1CC(c2ccccc2Cl)=NN(c2ncnc3ccccc23)C1=O` belongs 22.4 µM [falling, single point].
Consider `O=C(Cc1ccc(Cl)cc1)NCCS(=O)c1ccc(Cl)cc1` (centres undefined), for which the AC50 is, setting by setting: under setting [1], 5.62 µM [falling, single point]; under setting [2], 0.02 µM [falling, full curve, poor fit].
On to `Cc1ccccc1C(=O)OC1OC(=O)C(Cl)=C1Nc1ccccc1` (centres undefined), for which the AC50 was 0.891 µM [falling, full curve, poor fit] under setting [1] and 17.8 µM [rising, single point] under setting [2].
For the compound `O=C(Nc1ccccc1C(=O)NCc1ccco1)Nc1cccc2ccccc12`, the AC50 under setting [1] is 35.5 µM [rising, single point].
Turning to `NC(=O)c1ccc(NCc2ccco2)c([N+](=O)[O-])c1`, the AC50 reads like this: under setting [1], 0.0355 µM [rising, single point]; under setting [2], 0.794 µM [rising, single point].
For the compound `CCC1CN(C(=O)Nc2cc(C)cc(C)c2)c2ccccc2O1` (centres undefined), under setting [1], the AC50 was 7.94 µM [falling, partial curve, poor fit].
